PubChem BioAssay AID743121 | NCATS | 2013
Assay: 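Partners whose loss is lethal together with topoisomerase I blockade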 (primary screen). Cells: MDA-MB-231 cells, a human breast cancer line. Reagents: single siRNA against human genes, 20 nM siRNA (0.8 pmol per well). Time to read-out: 120 h (drug added 48 h after transfection, read 72 h later). Challenge: camptothecin 20 nM (about EC30) for 72 h; vehicle 0.1% DMSO in parallel plates. Measured: 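Cell viability by ATP luminescence (CellTiter-Glo) as % of non-targeting siRNA wells, and the log2 ratio of viability without drug over viability with camptothecin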. Reading the numbers: log2 vehicle/camptothecin viability: higher = stronger sensitisation to camptothecin; viability with camptothecin and viability without drug: higher = more viable cells. Hit rule: 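Each gene scored by redundant siRNA activity (RSA) over its individual siRNA ratios; a gene is called active at p < 0.001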.
Here is an unselected part of about 26,000 reagents tested. Over the whole deposit, 167 (0.63%) were called active. 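Calls are per gene from RSA p-values that are not deposited; an individual active-marked siRNA can sensitise only weakly.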 A number with no mark means an inactive call. The numbers tell different reagents against one gene apart.

gene | siRNA no. | log2 vehicle/camptothecin viability | viability with camptothecin (% of control) | viability without drug (% of control)
PALS2 (protein associated with LIN7 2, MAGUK p55 family member) | 1 | -0.354 | 93.5 | 73.2
PALS2 (protein associated with LIN7 2, MAGUK p55 family member) | 2 | -0.38 | 58.8 | 45.2
PALS2 (protein associated with LIN7 2, MAGUK p55 family member) | 3 | -0.09 | 88.1 | 82.7
PALS2 (protein associated with LIN7 2, MAGUK p55 family member) | 4 | -0.338 | 84.8 | 67.1
PLIN2 (perilipin 2) | 1 | -0.329 | 84.6 | 67.4
PLIN2 (perilipin 2) | 2 | 0.515 | 39.5 | 56.5
PLIN2 (perilipin 2) | 3 | 0.339 | 51.5 | 65.2
PLIN2 (perilipin 2) | 4 | 0.14 | 48.1 | 53
FGB (fibrinogen beta chain) | 1 | 0.443 | 67.1 | 91.2
FGB (fibrinogen beta chain) | 2 | -0.296 | 117 | 95.6
FGB (fibrinogen beta chain) | 3 | 0.35 | 37.8 | 48.2
FGB (fibrinogen beta chain) | 4 | -0.557 | 79.2 | 53.8

Continued (3 carried over from the part before).
gene | siRNA no. | log2 vehicle/camptothecin viability | viability with camptothecin (% of control) | viability without drug (% of control)
FGB (fibrinogen beta chain) | 2 | -0.296 | 117 | 95.6
FGB (fibrinogen beta chain) | 3 | 0.35 | 37.8 | 48.2
FGB (fibrinogen beta chain) | 4 | -0.557 | 79.2 | 53.8
PLK5 (polo like kinase 5 (inactive)) | 1 | -0.072 | 29.1 | 27.7
PLK5 (polo like kinase 5 (inactive)) | 2 | 1.34 | 29.4 | 74.6
PLK5 (polo like kinase 5 (inactive)) | 3 | -0.788 | 59.9 | 34.7
PLK5 (polo like kinase 5 (inactive)) | 4 | -0.159 | 83.1 | 74.4
CASP5 (caspase 5) | 1 | -0.0107 | 61.3 | 60.8
CASP5 (caspase 5) | 2 | 0.0226 | 87 | 88.4
CASP5 (caspase 5) | 3 | -0.449 | 93.8 | 68.7
CASP5 (caspase 5) | 4 | 0.177 | 61.1 | 69
PDP2 (pyruvate dehydrogenase phosphatase catalytic subunit 2) | 1 | 0.312 | 73.5 | 91.3
PDP2 (pyruvate dehydrogenase phosphatase catalytic subunit 2) | 2 | 0.0521 | 93.8 | 97.2
PDP2 (pyruvate dehydrogenase phosphatase catalytic subunit 2) | 3 | -0.47 | 95 | 68.6
PDP2 (pyruvate dehydrogenase phosphatase catalytic subunit 2) | 4 | -0.0551 | 108 | 104
CORIN (corin, serine peptidase) | 1 | 0.0159 | 74.1 | 74.9
CORIN (corin, serine peptidase) | 2 | 0.15 | 49.8 | 55.3
CORIN (corin, serine peptidase) | 3 | 0.24 | 39 | 46
CORIN (corin, serine peptidase) | 4 | -0.171 | 65.1 | 57.8
